Measurements from PubChem BioAssay AID504467 (National Center for Advancing Translational Sciences (NCATS), 2011).
Hit rate of the full screen: of about 330,000 compounds, about 7,700 (2.3%) were called active. Inconclusive results, whose numbers are uncertain, are shown with a selection of clear calls. The call rests on the fitted dose curve; in most records, active means well fitted inhibition curve with a large enough effect; inconclusive means small, poorly fitted or top-dose-only effect, or effect the other way; inactive means flat fitted curve, though single readings scatter. Potencies of inconclusive entries are doubtful fits and often do not repeat.

assay: qHTS screen for small molecules that inhibit ELG1-dependent DNA repair in human embryonic kidney (HEK293T) cells expressing luciferase-tagged ELG1; details: HEK293T ELG1-luciferase reporter, luminescence, 16 h, DNA damage induced by 5-fluorouridine; series mostly up to 46.1 µM; further: nearly all actives have a fitted effect of over 55% in size
How it was run: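 HEK293T cells expressing luciferase-tagged ELG1 (2,000/well) received 5-Fluorouridine plus compound or DMSO for 16 hr at 37 °C. Luciferase was read by ONE-Glo luminescence after 30 min at room temperature.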
Potency means the concentration at half of the fitted maximal effect.

Structure (SMILES) | Potency
O=C1CC(c2ccccc2Cl)c2c(sc3c(=O)[nH]c(CCl)nc23)N1 (centres undefined) | inconclusive: 29.1 µM [activator, single point]
CCOc1cc2nc(-c3ccc(OC)c(OC)c3)nc(N3CCOCC3)c2cc1OC | inconclusive: 8.2 µM [inhibitor, single point]
C/C(=N/NC(=O)c1ccoc1C)C12CC3CC(CC(C3)C1)C2 | inconclusive: 25.9 µM [activator, single point]
CCOc1ccc(NC(=S)Nc2cc(-c3ccccc3)[nH]n2)cc1 | inconclusive: 23.1 µM [inhibitor, single point]
COc1cccc(C(NC(C)=O)c2ccc3cccnc3c2O)c1 (centres undefined) | inconclusive: 14.6 µM [inhibitor, single point]
Cc1ccc(S(=O)(=O)N(C)c2ccc(OCC(=O)Nc3nnc(C4CC4)s3)cc2)cc1 | inconclusive: 29.1 µM [inhibitor, single point]
CCCCOc1ccc(C2(C)NC(=O)N(C)C2=O)cc1 (centres undefined) | inactive
CCC(=O)N1CCc2cc(OC)c(OC)cc2C1COc1ccc(OC)cc1 (centres undefined) | inconclusive: 16.4 µM [inhibitor, single point]
CC1=NN(Cc2ccccc2)C(=O)/C1=C\c1ccc(N(C)C)cc1 | inactive
O=C(O)c1cc2c(cn1)[nH]c1ccccc12 | inconclusive: 29.1 µM [inhibitor, single point]
CCc1ccc2nc(NC(=O)Cn3cnc4ccccc4c3=O)sc2c1 | inconclusive: 16.4 µM [activator, partial curve]
COC(c1ccccc1)c1nnc(CCC(=O)N(C)CCOc2ccccc2)o1 (centres undefined) | inconclusive: 16.4 µM [activator, partial curve]
COc1ccc2[nH]c(C)c(CCNC(=S)Nc3ccc(C)cc3)c2c1 | inconclusive: 16.4 µM [inhibitor, single point]
CCCNc1nc2ccccc2n2c(C)nnc12 | inconclusive: 18.3 µM [activator, partial curve]
Cc1cccc(-n2c(CCc3ccccc3)nnc2SCC(=O)c2ccccc2)c1 | inconclusive: 8.2 µM [inhibitor, partial curve]
Cc1cccc(N2CCN(C(=O)CN3CCOc4ccccc43)CC2C)c1 (centres undefined) | inconclusive: 29.1 µM [inhibitor, partial curve, poor fit]
CSC(=NC#N)N1CCN(c2ccc(Cl)cc2)CC1 | inconclusive: 10.3 µM [activator, partial curve]
O=C(Nc1nnc(C2=COCCO2)o1)c1ccc(Br)cc1 | inactive
CCCc1nn(-c2cc(Cl)ccc2OC)c2c1C(=O)CCC2 | inactive

Reprinted at random: 2 records from the list.
Structure (SMILES) | Potency
CCOc1cc2nc(-c3ccc(OC)c(OC)c3)nc(N3CCOCC3)c2cc1OC | inconclusive: 8.2 µM [inhibitor, single point]
CCOc1ccc(NC(=S)Nc2cc(-c3ccccc3)[nH]n2)cc1 | inconclusive: 23.1 µM [inhibitor, single point]
